The values that follow come from paper PMC8384837.

Changes are numbered by the printed parent chain. The list shows a part of the results. At the low end of the ranking the order means little.

Holding throughout (conditions): yeast three-hybrid, YBZ-1, SC-Leu-His + 0.5 mM 3-AT, 4 days
In assay [1] the target is T1, PUM1 PUF domain R5-CNH R1008N + Q1011H (UniProt Q14671).
T1 sequence: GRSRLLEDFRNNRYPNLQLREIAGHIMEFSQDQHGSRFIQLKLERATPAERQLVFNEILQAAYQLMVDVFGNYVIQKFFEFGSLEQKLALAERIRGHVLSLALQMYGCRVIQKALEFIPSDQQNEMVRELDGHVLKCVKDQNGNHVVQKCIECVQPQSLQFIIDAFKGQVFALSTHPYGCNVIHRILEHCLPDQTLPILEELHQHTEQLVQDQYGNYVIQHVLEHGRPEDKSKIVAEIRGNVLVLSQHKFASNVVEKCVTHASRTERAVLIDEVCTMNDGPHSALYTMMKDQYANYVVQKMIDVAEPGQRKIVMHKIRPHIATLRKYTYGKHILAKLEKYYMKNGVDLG

Assay [2] concerns the target T2, PUM1 PUF domain R5-DGA C1007D + R1008G + Q1011A (UniProt Q14671).
T2 sequence: T1 sequence with C180D, N181G, H184A

Assay [3] has as its target T3, PUM1 PUF domain R5-DHW C1007D + R1008H + Q1011W (UniProt Q14671).
T3 sequence: T1 sequence with C180D, N181H, H184W

In assay [4] the target is T4, PUM1 PUF domain R5-DIR C1007D + R1008I + Q1011R (UniProt Q14671).
T4 sequence: T1 sequence with C180D, N181I, H184R

In assay [5] the target is T5, PUM1 PUF domain R5-DRR C1007D + Q1011R (UniProt Q14671).
T5 sequence: T1 sequence with C180D, N181R, H184R

Assay [6] concerns the target T6, PUM1 PUF domain R5-EGE C1007E + R1008G + Q1011E (UniProt Q14671).
T6 sequence: T1 sequence with C180E, N181G, H184E

For assay [7], the target named is T7, PUM1 PUF domain R5-FNS C1007F + R1008N + Q1011S (UniProt Q14671).
T7 sequence: T1 sequence with C180F, H184S

The target in assay [8] is T8, PUM1 PUF domain R5-HCR C1007H + R1008C + Q1011R (UniProt Q14671).
T8 sequence: T1 sequence with C180H, N181C, H184R

The target of assay [9] is T9, PUM1 PUF domain R5-KCV C1007K + R1008C + Q1011V (UniProt Q14671).
T9 sequence: T1 sequence with C180K, N181C, H184V

Assay [10] concerns the target T10, PUM1 PUF domain R5-KPC C1007K + R1008P + Q1011C (UniProt Q14671).
T10 sequence: T1 sequence with C180K, N181P, H184C

The target in assay [11] is T11, PUM1 PUF domain R5-KVE C1007K + R1008V + Q1011E (UniProt Q14671).
T11 sequence: T1 sequence with C180K, N181V, H184E

Assay [12] deals with T12, PUM1 PUF domain R5-RDR C1007R + R1008D + Q1011R (UniProt Q14671).
T12 sequence: T1 sequence with C180R, N181D, H184R

Assay [13] has as its target T13, PUM1 PUF domain R5-RGD C1007R + R1008G + Q1011D (UniProt Q14671).
T13 sequence: T1 sequence with C180R, N181G, H184D

Assay [14] deals with T14, PUM1 PUF domain R5-RGW C1007R + R1008G + Q1011W (UniProt Q14671).
T14 sequence: T1 sequence with C180R, N181G, H184W

For assay [15], the target named is T15, PUM1 PUF domain R5-RLD C1007R + R1008L + Q1011D (UniProt Q14671).
T15 sequence: T1 sequence with C180R, N181L, H184D

The target of assay [16] is T16, PUM1 PUF domain R5-RLT C1007R + R1008L + Q1011T (UniProt Q14671).
T16 sequence: T1 sequence with C180R, N181L, H184T

Assay [17] has as its target T17, PUM1 PUF domain R5-RMD C1007R + R1008M + Q1011D (UniProt Q14671).
T17 sequence: T1 sequence with C180R, N181M, H184D

The target of assay [18] is T18, PUM1 PUF domain R5-RPN C1007R + R1008P + Q1011N (UniProt Q14671).
T18 sequence: T1 sequence with C180R, N181P, H184N

Assay [19] deals with T19, PUM1 PUF domain R5-RQW C1007R + R1008Q + Q1011W (UniProt Q14671).
T19 sequence: T1 sequence with C180R, N181Q, H184W

The target of assay [20] is T20, PUM1 PUF domain R5-WSR C1007W + R1008S + Q1011R (UniProt Q14671).
T20 sequence: T1 sequence with C180W, N181S, H184R

For “GGCUAGAACUAGUGGAUCCCCCGGCGCCCGGCGGCUCGAGCCCGGGUAAGUGUAAAUAGUCUGCAUGCCGCCGGGCGCCAUGCCUGCAGGUCGACUCUAGAAAACAUG”, the binding signal (log2 enrichment (interaction score)) was < -7.09 in assay [1]; < -8.63 in [2]; < -5.95 in [3]; -5.46 in assay [4]; -4.85 in assay [5]; -5.2 in assay [6]. The binding signal (log2 enrichment (interaction score)) is < -6.04 in [7]; -5.78 in assay [8]; -4.89 in assay [9]; -5.11 in assay [10]; < -6.29 in assay [11]; -5.9 in [12]. Besides, the binding signal (log2 enrichment (interaction score)) in [13] was -6.93; in [14] it was -6.82; in [15], -5.83; in assay [16], < -9.47; in assay [17], -4.53; in assay [18], -7.48. Further, the binding signal (log2 enrichment (interaction score)) in assay [19] is -4.55; in [20] it was -6.51.
